Measurements published in paper PMC6154100.
For some assays here: No signal at the amounts used counts as a negative. For some assays here: Construct, isoform or probe ends are uncertain for at least one entry. For some assays here: Results from cells or extracts need not show a direct contact.

The chains behind the UniProt entries cited, without tags or fusion partners. Residues count along the entry.
UniProt O70326, 25-184: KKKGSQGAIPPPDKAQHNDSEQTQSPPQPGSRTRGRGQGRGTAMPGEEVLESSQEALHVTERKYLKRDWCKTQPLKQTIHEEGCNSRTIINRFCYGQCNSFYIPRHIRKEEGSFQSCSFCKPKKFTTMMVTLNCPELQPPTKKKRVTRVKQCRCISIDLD
UniProt P02769, 25-607: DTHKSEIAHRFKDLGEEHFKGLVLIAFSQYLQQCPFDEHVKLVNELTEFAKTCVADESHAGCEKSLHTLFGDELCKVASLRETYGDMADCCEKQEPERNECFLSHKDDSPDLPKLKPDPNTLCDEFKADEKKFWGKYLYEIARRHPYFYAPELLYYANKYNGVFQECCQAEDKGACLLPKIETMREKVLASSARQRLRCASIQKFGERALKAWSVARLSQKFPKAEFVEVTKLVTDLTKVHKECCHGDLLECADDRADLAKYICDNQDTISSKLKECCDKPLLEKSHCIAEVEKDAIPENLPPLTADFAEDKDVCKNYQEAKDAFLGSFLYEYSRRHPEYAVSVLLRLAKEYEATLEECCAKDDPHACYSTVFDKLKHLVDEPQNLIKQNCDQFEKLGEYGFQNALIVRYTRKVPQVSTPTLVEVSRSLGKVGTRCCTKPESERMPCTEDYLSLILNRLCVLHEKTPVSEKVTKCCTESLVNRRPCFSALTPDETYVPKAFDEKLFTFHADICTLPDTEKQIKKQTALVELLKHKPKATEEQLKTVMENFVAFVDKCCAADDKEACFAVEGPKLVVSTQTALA
UniProt O60565, 25-184: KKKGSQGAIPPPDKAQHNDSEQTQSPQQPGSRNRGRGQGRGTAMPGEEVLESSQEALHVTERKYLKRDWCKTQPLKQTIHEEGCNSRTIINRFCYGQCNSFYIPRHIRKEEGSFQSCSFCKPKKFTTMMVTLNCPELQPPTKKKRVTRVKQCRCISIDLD

How the values were obtained:
Test in all cases: binding assay
[1] = target: Gremlin-1 (fibrotic liver lysate) (mouse) (UniProt O70326); conditions: South-Western blot; SHMCK: 20 mM Hepes, 120 mM NaCl, 5 mM KCl, 1 mM MgCl2, 1 mM CaCl2, pH 7.4, 37 C, 1 h; Gremlin-1 50 ng/well; dot-blot in PBS at 37 C, South-Western in PBS at 4 C; protein in an extract; label: 5'-biotin; folded or branched DNA
BSA = BSA (UniProt P02769); conditions: dot-blot; SHMCK: 20 mM Hepes, 120 mM NaCl, 5 mM KCl, 1 mM MgCl2, 1 mM CaCl2, pH 7.4, 37 C, 1 h; Gremlin-1 50 ng/well; dot-blot in PBS at 37 C, South-Western in PBS at 4 C; commercial protein; label: 5'-biotin; folded or branched DNA
[2] = target: Gremlin-1 (rhGremlin-1, R&D Systems) (human) (UniProt O60565); conditions: SHMCK: 20 mM Hepes, 120 mM NaCl, 5 mM KCl, 1 mM MgCl2, 1 mM CaCl2, pH 7.4, 37 C, 1 h, Gremlin-1 50 ng/well, dot-blot in PBS at 37 C, South-Western in PBS at 4 C, commercial protein, label: 5'-biotin, folded or branched DNA

“GCGTGCTCCAGTGGCTCTTCGGTACCAACCCAAAGTGACT [G-ap49 (without flanks)]”: binds [1]; no binding (BSA); binds ([2]; South-Western blot). “GCGTGCTCCAGTGGCTCTTCGGTACCAACCCAAAGTGACT [G-ap49 (without flanks)]”: binds ([2]; dot-blot); binds ([2]; sandwich ELASA).
